Reference: the supplement of paper PMC10849652
This is one part of the list.

By UniProt entry, the sequences of proteins in these tests, tags left out. Where a name states a change or a piece, a line headed by the entry shows the natural chain unless it says otherwise.
UniProt P31040: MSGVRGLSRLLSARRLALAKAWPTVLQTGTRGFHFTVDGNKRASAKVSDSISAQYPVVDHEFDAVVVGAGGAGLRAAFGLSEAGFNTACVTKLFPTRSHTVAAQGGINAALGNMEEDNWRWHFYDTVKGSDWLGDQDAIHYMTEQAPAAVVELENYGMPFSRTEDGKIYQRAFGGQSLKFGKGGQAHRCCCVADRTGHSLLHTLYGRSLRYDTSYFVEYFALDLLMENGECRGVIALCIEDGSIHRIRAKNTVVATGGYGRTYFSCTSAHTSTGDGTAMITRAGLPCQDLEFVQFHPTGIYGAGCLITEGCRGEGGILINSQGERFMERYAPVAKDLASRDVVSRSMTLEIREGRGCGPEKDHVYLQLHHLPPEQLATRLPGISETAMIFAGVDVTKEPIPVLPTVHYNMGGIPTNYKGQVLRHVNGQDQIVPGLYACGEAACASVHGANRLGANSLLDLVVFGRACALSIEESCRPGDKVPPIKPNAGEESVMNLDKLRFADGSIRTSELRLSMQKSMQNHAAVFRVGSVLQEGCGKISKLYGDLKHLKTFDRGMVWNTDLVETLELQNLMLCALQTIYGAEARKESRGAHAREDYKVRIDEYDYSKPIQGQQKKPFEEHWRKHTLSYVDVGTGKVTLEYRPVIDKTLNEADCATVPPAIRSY
UniProt P21912: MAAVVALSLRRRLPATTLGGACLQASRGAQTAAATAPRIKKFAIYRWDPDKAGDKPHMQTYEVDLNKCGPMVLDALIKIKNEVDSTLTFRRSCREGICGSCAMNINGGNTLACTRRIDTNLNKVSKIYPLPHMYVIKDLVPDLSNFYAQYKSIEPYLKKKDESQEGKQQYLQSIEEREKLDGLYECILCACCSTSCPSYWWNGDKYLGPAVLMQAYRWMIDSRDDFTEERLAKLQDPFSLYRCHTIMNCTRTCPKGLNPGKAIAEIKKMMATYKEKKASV
UniProt O75396: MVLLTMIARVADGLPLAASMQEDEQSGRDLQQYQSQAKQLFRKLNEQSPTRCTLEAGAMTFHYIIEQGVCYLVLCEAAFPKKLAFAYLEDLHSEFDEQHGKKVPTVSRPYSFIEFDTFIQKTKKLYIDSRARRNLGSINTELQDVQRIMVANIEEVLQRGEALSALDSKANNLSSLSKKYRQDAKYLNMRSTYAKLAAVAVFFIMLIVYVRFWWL
UniProt Q99643: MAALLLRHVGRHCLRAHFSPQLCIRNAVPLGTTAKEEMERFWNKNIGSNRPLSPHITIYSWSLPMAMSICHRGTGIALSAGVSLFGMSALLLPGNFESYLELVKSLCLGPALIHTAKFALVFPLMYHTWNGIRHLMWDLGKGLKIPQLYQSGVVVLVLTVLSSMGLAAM
UniProt Q96ER3: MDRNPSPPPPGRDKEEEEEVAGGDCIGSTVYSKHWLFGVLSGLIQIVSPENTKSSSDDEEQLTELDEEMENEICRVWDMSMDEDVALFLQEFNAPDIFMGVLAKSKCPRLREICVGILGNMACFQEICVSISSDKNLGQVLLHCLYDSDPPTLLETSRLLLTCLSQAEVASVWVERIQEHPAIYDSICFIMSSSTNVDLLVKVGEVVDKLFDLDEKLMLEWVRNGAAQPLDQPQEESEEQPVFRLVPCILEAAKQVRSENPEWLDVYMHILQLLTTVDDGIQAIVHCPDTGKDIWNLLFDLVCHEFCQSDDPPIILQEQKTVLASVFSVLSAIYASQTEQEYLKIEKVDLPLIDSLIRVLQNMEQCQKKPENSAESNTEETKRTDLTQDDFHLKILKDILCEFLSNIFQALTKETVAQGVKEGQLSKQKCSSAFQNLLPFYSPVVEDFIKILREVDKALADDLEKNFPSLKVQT
UniProt Q9NRG7: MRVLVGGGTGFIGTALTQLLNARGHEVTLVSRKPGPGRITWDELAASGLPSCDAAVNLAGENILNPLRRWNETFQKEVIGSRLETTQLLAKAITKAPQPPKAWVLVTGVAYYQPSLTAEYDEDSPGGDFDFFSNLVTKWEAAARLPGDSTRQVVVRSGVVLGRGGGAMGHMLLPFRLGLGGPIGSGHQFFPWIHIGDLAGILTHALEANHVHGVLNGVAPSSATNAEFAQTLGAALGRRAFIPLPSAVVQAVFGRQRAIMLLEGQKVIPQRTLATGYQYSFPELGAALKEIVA
UniProt Q0VDG4: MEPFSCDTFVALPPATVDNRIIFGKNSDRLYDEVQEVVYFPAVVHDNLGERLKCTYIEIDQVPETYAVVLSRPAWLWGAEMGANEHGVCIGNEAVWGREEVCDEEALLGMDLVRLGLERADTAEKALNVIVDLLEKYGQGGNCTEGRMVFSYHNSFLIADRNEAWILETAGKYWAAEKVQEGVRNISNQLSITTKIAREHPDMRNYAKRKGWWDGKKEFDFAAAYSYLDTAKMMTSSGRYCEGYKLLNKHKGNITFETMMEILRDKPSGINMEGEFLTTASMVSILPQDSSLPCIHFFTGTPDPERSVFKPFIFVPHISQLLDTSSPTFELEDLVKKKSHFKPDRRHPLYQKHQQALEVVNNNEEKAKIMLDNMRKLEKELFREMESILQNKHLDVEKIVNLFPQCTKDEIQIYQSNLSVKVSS
UniProt Q12770: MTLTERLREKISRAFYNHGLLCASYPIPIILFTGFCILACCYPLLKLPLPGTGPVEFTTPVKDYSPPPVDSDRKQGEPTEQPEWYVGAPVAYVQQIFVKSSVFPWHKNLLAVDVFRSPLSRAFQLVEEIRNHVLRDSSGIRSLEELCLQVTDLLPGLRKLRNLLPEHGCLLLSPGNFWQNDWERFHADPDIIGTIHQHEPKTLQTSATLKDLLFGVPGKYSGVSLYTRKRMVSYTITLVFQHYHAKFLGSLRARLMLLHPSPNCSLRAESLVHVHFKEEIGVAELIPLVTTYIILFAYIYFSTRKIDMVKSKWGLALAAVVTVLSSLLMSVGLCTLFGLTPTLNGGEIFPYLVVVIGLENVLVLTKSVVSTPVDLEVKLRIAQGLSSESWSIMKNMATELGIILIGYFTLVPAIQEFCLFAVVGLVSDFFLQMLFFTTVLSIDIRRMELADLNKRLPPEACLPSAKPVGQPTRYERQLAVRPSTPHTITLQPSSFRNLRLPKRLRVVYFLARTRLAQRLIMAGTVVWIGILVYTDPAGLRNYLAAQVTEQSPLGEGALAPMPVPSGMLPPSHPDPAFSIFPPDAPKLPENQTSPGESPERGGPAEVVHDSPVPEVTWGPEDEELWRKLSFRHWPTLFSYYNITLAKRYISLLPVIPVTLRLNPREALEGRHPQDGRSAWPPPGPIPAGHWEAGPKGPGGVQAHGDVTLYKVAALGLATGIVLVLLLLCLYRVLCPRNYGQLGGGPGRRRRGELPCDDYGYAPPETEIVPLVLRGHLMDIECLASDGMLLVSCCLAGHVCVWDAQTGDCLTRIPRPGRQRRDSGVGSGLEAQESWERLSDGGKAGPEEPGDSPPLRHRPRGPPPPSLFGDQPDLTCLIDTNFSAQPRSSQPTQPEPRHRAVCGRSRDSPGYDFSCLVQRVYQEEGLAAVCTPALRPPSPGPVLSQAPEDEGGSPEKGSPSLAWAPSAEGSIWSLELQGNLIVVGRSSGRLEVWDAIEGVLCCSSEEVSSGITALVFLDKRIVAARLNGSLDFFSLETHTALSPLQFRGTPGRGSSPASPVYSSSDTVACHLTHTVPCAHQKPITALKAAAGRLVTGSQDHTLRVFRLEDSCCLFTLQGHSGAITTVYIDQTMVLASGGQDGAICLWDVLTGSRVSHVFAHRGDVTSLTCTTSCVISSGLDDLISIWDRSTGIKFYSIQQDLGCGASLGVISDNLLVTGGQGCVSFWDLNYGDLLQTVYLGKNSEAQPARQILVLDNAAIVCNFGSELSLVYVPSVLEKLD
UniProt Q96I15: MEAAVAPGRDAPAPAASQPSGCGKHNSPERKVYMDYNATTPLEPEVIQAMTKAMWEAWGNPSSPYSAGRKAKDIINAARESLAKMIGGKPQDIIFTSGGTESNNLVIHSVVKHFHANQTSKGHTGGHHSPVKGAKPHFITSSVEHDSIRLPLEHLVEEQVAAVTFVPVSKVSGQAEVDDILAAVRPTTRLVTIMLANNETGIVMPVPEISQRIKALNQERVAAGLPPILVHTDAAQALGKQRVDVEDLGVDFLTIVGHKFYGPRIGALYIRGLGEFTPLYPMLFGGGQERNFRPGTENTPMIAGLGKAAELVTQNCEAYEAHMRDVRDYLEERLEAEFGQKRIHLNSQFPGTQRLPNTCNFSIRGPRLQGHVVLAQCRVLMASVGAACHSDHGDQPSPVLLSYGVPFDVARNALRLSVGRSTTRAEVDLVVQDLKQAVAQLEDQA
UniProt Q99584: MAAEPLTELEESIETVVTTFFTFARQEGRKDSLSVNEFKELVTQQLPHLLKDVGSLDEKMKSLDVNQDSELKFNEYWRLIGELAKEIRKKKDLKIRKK
UniProt Q9Y6U3: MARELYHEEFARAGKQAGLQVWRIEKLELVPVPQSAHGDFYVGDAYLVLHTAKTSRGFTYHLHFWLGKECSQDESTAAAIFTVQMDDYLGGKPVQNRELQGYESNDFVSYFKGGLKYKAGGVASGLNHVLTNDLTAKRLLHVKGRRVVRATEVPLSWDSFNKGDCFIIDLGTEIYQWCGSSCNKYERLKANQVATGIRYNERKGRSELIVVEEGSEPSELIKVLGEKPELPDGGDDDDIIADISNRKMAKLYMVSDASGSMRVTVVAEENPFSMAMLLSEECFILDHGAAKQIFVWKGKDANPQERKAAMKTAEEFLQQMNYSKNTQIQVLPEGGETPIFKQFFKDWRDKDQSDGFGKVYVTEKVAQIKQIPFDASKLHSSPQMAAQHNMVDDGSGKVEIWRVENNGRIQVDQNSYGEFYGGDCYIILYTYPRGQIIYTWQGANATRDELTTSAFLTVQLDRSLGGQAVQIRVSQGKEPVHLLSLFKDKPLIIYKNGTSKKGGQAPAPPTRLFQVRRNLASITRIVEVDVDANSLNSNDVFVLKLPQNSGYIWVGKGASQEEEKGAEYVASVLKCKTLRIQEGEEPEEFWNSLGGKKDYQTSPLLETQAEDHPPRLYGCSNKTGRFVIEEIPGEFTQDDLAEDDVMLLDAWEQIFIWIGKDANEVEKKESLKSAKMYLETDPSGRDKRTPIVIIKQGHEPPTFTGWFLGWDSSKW
UniProt O00442: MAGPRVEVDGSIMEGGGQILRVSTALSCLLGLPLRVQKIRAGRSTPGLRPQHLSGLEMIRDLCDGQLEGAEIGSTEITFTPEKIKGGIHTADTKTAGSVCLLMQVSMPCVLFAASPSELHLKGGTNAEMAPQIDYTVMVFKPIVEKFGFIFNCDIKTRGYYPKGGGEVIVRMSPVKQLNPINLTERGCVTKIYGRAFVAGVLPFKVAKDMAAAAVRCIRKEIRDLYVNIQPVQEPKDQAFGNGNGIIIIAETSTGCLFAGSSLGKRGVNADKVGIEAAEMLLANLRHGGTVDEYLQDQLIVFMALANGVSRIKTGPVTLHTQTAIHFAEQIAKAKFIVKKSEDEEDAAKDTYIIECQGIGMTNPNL
UniProt O95104: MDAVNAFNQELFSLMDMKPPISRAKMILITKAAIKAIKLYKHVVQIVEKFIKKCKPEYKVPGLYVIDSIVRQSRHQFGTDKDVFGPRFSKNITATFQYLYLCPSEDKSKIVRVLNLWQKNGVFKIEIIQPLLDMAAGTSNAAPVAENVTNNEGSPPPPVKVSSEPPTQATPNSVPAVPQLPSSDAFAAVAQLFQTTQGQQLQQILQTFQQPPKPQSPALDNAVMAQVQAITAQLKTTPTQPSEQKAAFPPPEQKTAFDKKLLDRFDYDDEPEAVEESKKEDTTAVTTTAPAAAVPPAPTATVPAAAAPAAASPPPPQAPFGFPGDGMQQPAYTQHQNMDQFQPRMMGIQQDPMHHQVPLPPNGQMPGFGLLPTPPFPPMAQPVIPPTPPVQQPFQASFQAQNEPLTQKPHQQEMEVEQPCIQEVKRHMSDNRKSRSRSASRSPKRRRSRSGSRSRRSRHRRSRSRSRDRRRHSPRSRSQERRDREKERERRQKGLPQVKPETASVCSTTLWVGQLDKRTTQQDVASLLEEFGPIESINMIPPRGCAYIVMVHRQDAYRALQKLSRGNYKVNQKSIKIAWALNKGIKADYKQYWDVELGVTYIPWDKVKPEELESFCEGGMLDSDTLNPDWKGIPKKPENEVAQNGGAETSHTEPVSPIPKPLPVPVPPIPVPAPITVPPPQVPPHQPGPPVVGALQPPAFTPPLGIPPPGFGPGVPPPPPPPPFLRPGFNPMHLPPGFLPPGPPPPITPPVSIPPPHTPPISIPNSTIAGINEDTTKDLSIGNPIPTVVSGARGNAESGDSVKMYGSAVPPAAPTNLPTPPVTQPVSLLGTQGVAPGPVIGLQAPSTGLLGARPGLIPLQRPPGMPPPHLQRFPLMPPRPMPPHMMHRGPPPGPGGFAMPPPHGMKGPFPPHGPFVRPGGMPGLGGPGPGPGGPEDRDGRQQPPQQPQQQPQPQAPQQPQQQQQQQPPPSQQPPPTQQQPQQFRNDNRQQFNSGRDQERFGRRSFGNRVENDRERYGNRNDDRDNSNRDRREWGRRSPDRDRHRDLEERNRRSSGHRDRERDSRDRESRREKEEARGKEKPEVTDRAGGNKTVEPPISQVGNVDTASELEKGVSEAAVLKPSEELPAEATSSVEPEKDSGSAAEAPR

What was measured:
Assay in all cases: log2 fold change, soluble protein after heating vs DMSO (PISA); higher = thermal stabilisation; K562 cells, 10 uM, 30 min; active = over 0.2 and 3.5 SD of the protein, either way, in both replicates (recomputed)
[1] = compound: C1=CC=C(C=C1)[C@H](COC2=CC3=C(C=C2)NC(=O)N3)NC(=O)C4=CC=CN(C4=O)CC5=CC(=C(C=C5)F)F
How it was run: (§1)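 K562 cells at 2×10^6 cells/mL were given 10 μM compound for 30 min. Aliquots then went through 3 min of heating across 48°C-58°C, were pooled, and were extracted in PBS with 0.5% NP-40 at 4°C, and the supernatant after 21,000xg for 90 min was quantified by TMTpro 16plex LC-MS/MS with channel sums equalised. Thermal stability relative to control samples, from duplicates, is given as log2 fold change.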

[2] = compound: CC1=C(SC2=C1C(=N[C@H](C3=NN=C(N32)C)CC(=O)N)C4=CC=C(C=C4)Cl)C
How it was run: as §1

[3] = compound: CC1=C2C(=CC=C1)N=C(N(C2=O)C3=CC=CC=C3C)CN4C=NC5=C(N=CN=C54)N
How it was run: as §1

[4] = compound: Cc1sc2c(c1C)C(c1ccc(Cl)cc1)=N[C@@H](CC(=O)OC(C)(C)C)c1nnc(C)n1-2
How it was run: as §1

[5] = compound: c1ccc([C@@H]2C[C@H]2NC2CCNCC2)cc1
How it was run: as §1

Measured: log2 fold change

SDHA (UniProt P31040)
inactive: [1] 0.018 | [2] 0.01 | [3] -0.004 | [4] 0.005 | [5] 0.01

SEC24D isoform 2 (UniProt O94855)
inactive: [1] -0.026 | [2] 0.11 | [3] 0.099 | [4] -0.005 | [5] -0.008

RTF2 (UniProt Q9BY42)
inactive: [1] 0.054 | [2] -0.009 | [3] 0.068 | [4] -0.038 | [5] 0.045

SCAMP1 (UniProt O15126)
inactive: [1] 0.022 | [2] 0.05 | [3] 0.024 | [4] -0.027 | [5] 0.085

SCD (UniProt O00767)
inactive: [1] 0.011 | [2] -0.019 | [3] 0.012 | [4] 0.054 | [5] 0.027

SDHB (UniProt P21912)
inactive: [1] 0.008 | [2] -0.019 | [3] -0.05 | [4] 0.033 | [5] 0.03

SEC22B (UniProt O75396)
inactive: [1] -0.001 | [2] 0.1 | [3] 0.078 | [4] -0.06 | [5] -0.046

RSRC1 (UniProt Q96IZ7)
inactive: [1] -0.002 | [2] -0.019 | [3] 0.079 | [4] -0.019 | [5] -0.03

SCO1 (UniProt O75880)
inactive: [1] 0.031 | [2] 0.061 | [3] 0.131 | [4] 0.061 | [5] -0.011

SDHD (UniProt O14521)
inactive: [1] 0.035 | [2] 0.054 | [3] -0.02 | [4] -0.159 | [5] 0.002

SDHC (UniProt Q99643)
inactive: [1] -0.052 | [2] 0.004 | [3] -0.056 | [4] -0.018 | [5] 0.163

RSU1 (UniProt Q15404)
inactive: [1] 0.015 | [2] 0.03 | [3] 0.044 | [4] -0.026 | [5] 0.013

RTCB (UniProt Q9Y3I0)
inactive: [1] 0.01 | [2] -0.016 | [3] -0.055 | [4] 0.026 | [5] -0.009

RTN2 (UniProt O75298)
inactive: [1] -0.048 | [2] 0.121 | [3] -0.02 | [4] -0.057 | [5] 0.028

SAE1 (UniProt Q9UBE0)
inactive: [1] -0.011 | [2] 0.069 | [3] 0.047 | [4] -0.007 | [5] 0

SCG3 (UniProt Q8WXD2)
inactive: [1] 0.131 | [2] 0.034 | [3] 0.09 | [4] 0 | [5] 0.051

SAAL1 (UniProt Q96ER3)
inactive: [1] -0.054 | [2] 0.03 | [3] 0.046 | [4] 0.109 | [5] -0.043

RSBN1 (UniProt Q5VWQ0)
inactive: [1] 0.015 | [2] -0.285 | [3] -0.05 | [4] 0.181 | [5] 0.087

SDR39U1 (UniProt Q9NRG7)
inactive: [1] 0.9 | [2] 0.005 | [3] 0.236 | [4] -0.348 | [5] -0.306

RRS1 (UniProt Q15050)
inactive: [1] 0.168 | [2] -0.368 | [3] -0.187 | [4] 0.246 | [5] -0.006

SCARB1 isoform 2 (UniProt Q8WTV0)
inactive: [1] 0.059 | [2] 0.033 | [3] 0.021 | [4] 0 | [5] 0.011

RSPRY1 (UniProt Q96DX4)
inactive: [1] -0.009 | [2] 0.024 | [3] 0.012 | [4] -0.026 | [5] 0.029

SCARB2 (UniProt Q14108)
inactive: [1] 0.028 | [2] 0.024 | [3] -0.012 | [4] -0.003 | [5] 0.035

SCRN3 (UniProt Q0VDG4)
inactive: [1] -0.006 | [2] 0.034 | [3] 0.002 | [4] -0.028 | [5] 0.083

Looked up one by one from the list above, 3 records:
SCRN3 (UniProt Q0VDG4)
inactive: [1] -0.006 | [2] 0.034 | [3] 0.002 | [4] -0.028 | [5] 0.083

SDR39U1 (UniProt Q9NRG7)
inactive: [1] 0.9 | [2] 0.005 | [3] 0.236 | [4] -0.348 | [5] -0.306

SCARB2 (UniProt Q14108)
inactive: [1] 0.028 | [2] 0.024 | [3] -0.012 | [4] -0.003 | [5] 0.035

The results go on.

SCAMP2 (UniProt H3BUB6)
inactive: [1] 0.03 | [2] -0.017 | [3] 0.308 | [4] 0.15 | [5] 0.135

SCAP (UniProt Q12770)
inactive: [1] 0.041 | [2] 0.048 | [3] 0.05 | [4] 0.002 | [5] -0.031

RSRC2 (UniProt Q7L4I2)
inactive: [1] 0.034 | [2] 0 | [3] -0.045 | [4] 0.022 | [5] 0.085

SAFB isoform 3 (UniProt Q15424)
inactive: [1] 0.101 | [2] 0.018 | [3] 0.033 | [4] 0.136 | [5] 0.168

SCLY (UniProt Q96I15)
inactive: [1] 0.009 | [2] 0.045 | [3] 0.039 | [4] -0.009 | [5] 0.018

S100A13 (UniProt Q99584)
inactive: [1] -0.008 | [2] 0.029 | [3] -0.005 | [4] -0.015 | [5] -0.004

SART1 (UniProt O43290)
inactive: [1] 0.136 | [2] -0.352 | [3] -0.24 | [4] 0.139 | [5] 0

RTN3 isoform 5 (UniProt O95197)
inactive: [1] 0.158 | [2] 0.248 | [3] 0.079 | [4] -0.002 | [5] -0.215

RUVBL1 (UniProt Q9Y265)
inactive: [1] 0.019 | [2] 0.026 | [3] -0.008 | [4] 0.006 | [5] 0.021

SCIN (UniProt Q9Y6U3)
inactive: [1] -0.013 | [2] -0.031 | [3] 0.077 | [4] -0.026 | [5] -0.008

SASS6 (UniProt Q6UVJ0)
inactive: [1] -0.006 | [2] 0.013 | [3] 0.021 | [4] -0.072 | [5] -0.024

RTCA (UniProt O00442)
inactive: [1] -0.007 | [2] 0.034 | [3] 0.006 | [4] 0.004 | [5] -0.004

SCRN2 (UniProt Q96FV2)
inactive: [1] -0.124 | [2] -0.166 | [3] 0.027 | [4] 0.003 | [5] -0.069

RRP12 (UniProt Q5JTH9)
inactive: [1] -0.015 | [2] -0.068 | [3] 0.045 | [4] 0.001 | [5] 0

RYBP (UniProt Q8N488)
inactive: [1] -0.014 | [2] -0.057 | [3] 0.018 | [4] 0.09 | [5] 0.157

RRP7A (UniProt Q9Y3A4)
inactive: [1] 0.037 | [2] -0.066 | [3] -0.124 | [4] 0.058 | [5] 0.042

SCAF4 (UniProt O95104)
inactive: [1] -0.016 | [2] 0.109 | [3] 0.052 | [4] 0.059 | [5] -0.045

SCYL2 (UniProt Q6P3W7)
inactive: [1] -0.023 | [2] 0.041 | [3] 0.031 | [4] -0.023 | [5] -0.006
